{"source": "PubChem BioAssay AID624297", "about": "(National Center for Advancing Translational Sciences (NCATS), 2012)", "note": "Several values for one entry are separate records, joined by “and”; a condition that tells them apart may be missing. Equal entries are not always repeated. Among all 340,000 compounds or so, about 6,200 (1.8%) were called active. The inconclusive results got no clear call from the source; some entries with a clear call stand among them for comparison. Calls follow the shape of the dose curve; as a rule, active = well fitted activation curve with a large enough effect; inconclusive = small, poorly fitted or top-dose-only effect; inactive = no such curve, though single readings can be large or run the other way. A potency beside an inconclusive call is a rough fit, not a confirmed value. Potency is read from the fitted curve at half-maximal effect.", "data": [{"experiment": "A quantitative high throughput screen for small molecules that induce DNA re-replication in SW480 colon adenocarcinoma cells; also: nearly all actives have a fitted effect of over 55% in size; as to re-replication activation: % of control where 0% means no effect.", "conditions": "Hoechst DNA content imaging, 48 h; re-replication activation: at 46.1 µM (top of the series) unless noted", "outline": "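250 cells/well; 23 nL cpd via pin tool; 48 hr, 37 C, 5% CO2; Hoechst 40 min; imager read of total nuclear intensity, ex 405/em 500-530 nm.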", "values": [{"molecule": "CN(C)c1ccc(C=Nc2ccccc2C(N)=O)cc1", "Potency": "inconclusive: 13 µM [activator, single point]"}, {"molecule": "Cc1ccc(C(=O)N(C)CC(=O)Nc2ccc(Cl)c(C(F)(F)F)c2)cc1S(=O)(=O)N1CCCCC1", "Potency": "inconclusive: 29.1 µM [activator, single point]"}, {"molecule": "O=C1CC(N2CCN(c3ccccn3)CC2)C(=O)N1CC(c1ccccc1)c1ccccc1", "note": "(stereo not drawn)", "re-replication activation": "inactive: 11.8%"}, {"molecule": "CC(C)Oc1cccc(C(=O)C2CCCN(Cc3cnn(C(C)C)c3)C2)c1", "note": "(stereo not drawn)", "Potency": "inconclusive: 32.6 µM [activator, partial curve, poor fit]"}, {"molecule": "CC(C)CC1C(=O)N(Cc2cn(CC3CCCCC3)nn2)CCS(=O)(=O)N1Cc1ccc(-c2cccc(C#N)c2)cc1", "note": "(stereo not drawn)", "Potency": "inconclusive: 20.6 µM [activator, single point]"}, {"molecule": "Cc1nc(Nc2nc3ccccc3o2)nc2c1CCC2", "Potency": "inconclusive: 6.51 µM [activator, single point]"}, {"molecule": "CC(C)[C@H](NC(=O)c1cccc(CN(Cc2ccccc2)C(=O)c2ccccc2)c1)C(=O)O", "re-replication activation": "inactive: -6.04%"}, {"molecule": "COc1cccc(N2[C@@H](CC(C)=O)c3cc(C(F)(F)F)ccc3S2(=O)=O)c1", "re-replication activation": "inactive: -12.5% [at 9.22 µM]"}, {"molecule": "COc1ccc(C(=O)/C=C/c2ccc(OCc3ccccc3)cc2)cc1CSCC(=O)O", "Potency": "inconclusive: 8.2 µM [activator, partial curve, poor fit]"}, {"molecule": "CCN1CCN(C(=O)c2ccc(Cl)c(S(=O)(=O)N3CCCCC3)c2)CC1", "re-replication activation": "inactive: 5.39%"}, {"molecule": "O=C(COC(=O)CCS(=O)(=O)c1ccc(Cl)cc1)NCCc1ccc(Cl)cc1Cl", "Potency": "inconclusive: 0.0046 µM [activator, full curve, poor fit]"}, {"molecule": "CC/C(=N/NC(=O)c1ccc(Br)cc1)c1ccc(OCCN2CCOCC2)cc1", "Potency": "inconclusive: 23.1 µM [activator, single point]"}, {"molecule": "O=C(Cc1ccccc1)N/N=C/C=C/c1ccccc1[N+](=O)[O-]", "re-replication activation": "inactive: -7.57%"}, {"molecule": "COc1ccc(Nc2nc3ccccc3n2C)cc1", "re-replication activation": "inactive: -5.28%"}, {"molecule": "CCn1c(NN)nc2sc3c(c2c1=O)CCC3", "Potency": "inconclusive: 29.1 µM [activator, single point]"}, {"molecule": "O=C(CN(Cc1ccccc1)C(=O)c1cc2c(s1)CCC2)NCc1cccs1", "re-replication activation": "inactive: 17.2%"}, {"molecule": "C#CCn1c(CCNC(=O)c2ccco2)nc2ccccc21", "re-replication activation": "inactive: -6.52%"}, {"molecule": "CCc1c(O)nc(SCc2ccc(F)cc2)[nH]c1=O", "Potency": "inconclusive: 11.6 µM [activator, single point]"}, {"molecule": "CC(C)C[C@@H](C(=O)NC1CCN(Cc2ccccc2)CC1)N1C(=O)N2CCc3c([nH]c4ccccc34)[C@@]2(C)C1=O", "Potency": "inconclusive: 1.3 µM [activator, full curve, poor fit]"}, {"molecule": "c1cnc2c(SCc3ccc(-c4nnco4)cc3)cccc2c1", "Potency": "inconclusive: 29.1 µM [activator, single point]"}, {"molecule": "Cc1nc(NC(=O)CCl)sc1C(=O)N(C)C", "Potency": "inconclusive: 9.2 µM [activator, partial curve]"}, {"molecule": "COc1ccc(C(=O)CSc2[nH]c(=O)cc(C(F)(F)F)c2C#N)cc1", "Potency": "inconclusive: 11.6 µM [activator, partial curve, poor fit]"}, {"molecule": "CCCCCOc1ccc(C(=O)Nc2ccc(N3CCOCC3)cc2N2CCOCC2)cc1", "Potency": "inconclusive: 29.1 µM [activator, single point]"}, {"molecule": "Cc1ccc(C)c(NC(=O)CCN2CCN(CCO)CC2)c1", "Potency": "inconclusive: 18.4 µM [activator, single point]"}, {"molecule": "Cc1ccc(S(=O)(=O)N2CCC(C(=O)Nc3ccccc3N3CCCCC3)CC2)cc1C", "Potency": "inconclusive: 16.4 µM [activator, partial curve, poor fit]"}, {"molecule": "Cc1sc(N)nc1-c1ccccc1", "re-replication activation": "inactive: -0.417%"}, {"molecule": "CCOC(=O)C1(Cc2ccccc2)CCN(Cc2cccc(OC)c2O)CC1", "re-replication activation": "inactive: -0.403%"}, {"molecule": "Cc1cc([N+](=O)[O-])ccc1-c1ccc(C2Nc3ccccc3C(=O)N2O)o1", "note": "(stereo not drawn)", "Potency": "inconclusive: 13 µM [activator, partial curve, poor fit]"}, {"molecule": "O=C1CSC(=S)N1N=Cc1ccc2c(c1)OCO2", "re-replication activation": "inactive: -1.68%"}, {"molecule": "COc1ccccc1N1CCN(CCCNC(=O)Nc2ccccc2C)CC1", "re-replication activation": "inactive: -8.89%"}, {"molecule": "O=C(CN1C(=O)S/C(=C\\c2ccccc2Cl)C1=O)NC1C=CS(=O)(=O)C1", "note": "(stereo not drawn)", "Potency": "inconclusive: 20.6 µM [activator, single point]"}, {"molecule": "O=C(Nc1cccnc1)c1ccc(Cl)c(S(=O)(=O)N2CCOCC2)c1", "re-replication activation": "inactive: -88.7%"}, {"molecule": "O=C(N=Nc1c(O)n(Cc2ccccc2)c2ccccc12)c1ccncc1", "re-replication activation": "inactive: 9.19%"}, {"molecule": "N=C1C(c2nc3ccccc3s2)=C(O)CN1Cc1ccco1", "Potency": "inconclusive: 20.6 µM [activator, single point]"}, {"molecule": "COc1ccc(NCc2nnc(SCC(=O)c3ccc(OC)cc3)o2)cc1", "Potency": "inconclusive: 29.1 µM [activator, single point]"}, {"molecule": "CC(C)(C)OC(=O)CC[C@@H](C(=O)NCCCCCCCCCCC(=O)N1CCN(C(=O)OC(C)(C)C)CC1)n1cc(CCCCCNC(=O)OC(C)(C)C)nn1", "Potency": "inconclusive: 13 µM [activator, partial curve, poor fit]"}, {"molecule": "O=C(NCCCN1CCCC1=O)c1ccc(Cl)c(S(=O)(=O)N2CCCCC2)c1", "Potency": "inconclusive: 6.51 µM [activator, single point]"}, {"molecule": "CN(C(=O)CCN1C(=O)S/C(=C\\c2ccccc2)C1=O)C1CCS(=O)(=O)C1", "note": "(stereo not drawn)", "re-replication activation": "inactive: -3.5%"}, {"molecule": "Cc1ccc2nc(-c3ccc(NS(=O)(=O)c4ccc(F)cc4)cc3)sc2c1", "Potency": "inconclusive: 29.1 µM [activator, single point]"}, {"molecule": "COc1cccc(CNC(=O)C(NS(=O)(=O)c2ccc3c(c2)CCN3C(C)=O)C(C)C)c1", "note": "(stereo not drawn)", "re-replication activation": "inactive: 3.14%"}, {"molecule": "ClCCn1cnc2c(SCc3ccccc3)ncnc21", "Potency": "inconclusive: 20.6 µM [activator, partial curve, poor fit]"}, {"molecule": "COc1ccc(OC)c(NC(=O)c2ccc3c(c2)C(=O)N(CC2CCCO2)C3=O)c1", "note": "(stereo not drawn)", "re-replication activation": "inactive: -9.45%"}, {"molecule": "COC(=O)c1ccccc1N(C)S(=O)(=O)c1cc2c(cc1C)OCC(=O)N2", "Potency": "inconclusive: 29.1 µM [activator, single point]"}, {"molecule": "Cc1cc(C2=NNC(=NC3CC3)SC2)c(C)n1-c1ccccc1F", "Potency": "inconclusive: 29.1 µM [activator, single point] and inconclusive: 18.4 µM [activator, single point]"}, {"molecule": "Clc1ccc2oc(-c3ccccc3)cc(=NCCCN3CCOCC3)c2c1", "re-replication activation": "inactive: 5.41%"}, {"molecule": "Cc1cc(C)cc(NC(=O)/C(C#N)=C/c2cn(CC(=O)NCc3ccco3)c3ccccc23)c1", "Potency": "inconclusive: 4.11 µM [activator, full curve]"}, {"molecule": "CCOc1cc(CNCCc2ccccc2)ccc1OCC(=O)NC(C)(C)C", "Potency": "inconclusive: 29.1 µM [activator, single point]"}, {"molecule": "CC[C@@]1(c2ccccc2OC)ON(c2ccccc2C(F)(F)F)C1=O", "Potency": "inconclusive: 20.6 µM [activator, single point]"}, {"molecule": "CCn1c(SCc2cccc(F)c2)nnc1-c1ccncc1", "Potency": "inconclusive: 0.82 µM [activator, full curve, poor fit]"}, {"molecule": "O=C(N/N=C\\c1coc2ccccc2c1=O)c1ccco1", "Potency": "inconclusive: 5.17 µM [activator, single point]"}, {"molecule": "Cc1ccc(S(=O)(=O)N(Cc2cccc(Cl)c2)C(=O)N2CCN(C)CC2)cc1", "re-replication activation": "inactive: 1.28%"}, {"molecule": "COc1ccccc1NS(=O)(=O)c1cc(-c2cnc(C3CC3)o2)ccc1C", "Potency": "inconclusive: 14.6 µM [activator, single point]"}, {"molecule": "COc1ccc(/C=N/NC(=O)c2c(C)nc3ccc(Cl)cn23)cc1OC", "Potency": "inconclusive: 20.6 µM [activator, single point]"}, {"molecule": "Cc1ccc(C)c(S(=O)(=O)N2CCN(C(=O)CCCc3c[nH]c4ccccc34)CC2)c1", "Potency": "inconclusive: 29.1 µM [activator, single point]"}, {"molecule": "CCCc1cc(=O)oc2c3c(cc(OCC(=O)NCc4ccccn4)c12)OC(C)(C)CC3", "Potency": "inconclusive: 29.1 µM [activator, single point]"}, {"molecule": "COc1ccc(NC(=S)c2ccncc2)cc1", "Potency": "inconclusive: 13 µM [activator, partial curve, poor fit]"}, {"molecule": "Cc1cccc2cc(COC(=O)COc3ccccc3)c(=O)[nH]c12", "re-replication activation": "inactive: -1.75%"}, {"molecule": "O=C(c1ccccc1Cl)N1CCSCC1", "Potency": "inconclusive: 18.4 µM [activator, single point]"}, {"molecule": "COCCNC(=O)c1cc(-c2ccccc2OC)on1", "Potency": "inconclusive: 16.4 µM [activator, single point]"}, {"molecule": "COc1ccc(NC(=O)CN2CCN(CC(=O)Nc3ccc(OC)cc3)CC2)cc1", "re-replication activation": "inactive: -24.4%"}, {"molecule": "CC(=O)Oc1ccc(OC(C)=O)c(SCCCCCCl)c1", "Potency": "inconclusive: 16.4 µM [activator, single point]"}, {"molecule": "CC1C/C(=C/c2ccncc2)C(=O)/C(=C/c2ccncc2)C1", "note": "(stereo not drawn)", "Potency": "inconclusive: 0.259 µM [activator, partial curve, poor fit]"}, {"molecule": "O=S1(=O)CCC(NC(=S)SCc2ccccc2Br)C1", "note": "(stereo not drawn)", "Potency": "inconclusive: 29.1 µM [activator, single point]"}, {"molecule": "O=C(NC1CC(=O)N(c2ccc(F)cc2)C1)C(=O)c1c[nH]c2ccccc12", "note": "(stereo not drawn)", "re-replication activation": "inactive: -3.78%"}, {"molecule": "CCCn1c(=S)[nH]c2cc(C(=O)N3CCN(C4CCCCC4)CC3)ccc2c1=O", "re-replication activation": "inactive: -17.7%"}, {"molecule": "CNC(=O)/C(C#N)=C/c1c(N2CCCCCC2)nc2ccccn2c1=O", "Potency": "inconclusive: 18.4 µM [activator, single point]"}, {"molecule": "Cc1nn(Cc2ccccc2)c(C)c1NC(=O)c1cccs1", "Potency": "inconclusive: 0.116 µM [activator, full curve, poor fit]"}, {"molecule": "O=C(Nc1cccc(Cl)c1)OCCN1CCN(Cc2ccccc2)CCC1=O", "re-replication activation": "inactive: 1.64%"}]}]}
